PubChem BioAssay AID1259425, University of Nebraska Medical Center – 2018
This is one part, drawn at random, of about 14,000 deposited reagents. Not all columns of the deposit are shown. Not given: the time to read-out.

- Purpose: 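Find knockdowns that reproduce the gene expression pattern seen when KSR1 is lost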 (primary screen)
- System: HCT116 human colon cancer cells
- Knock-down reagent: siRNA pool against human genes, 50 nM siRNA
- Measured: 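mRNA of six signature genes measured together by branched-DNA assay after 50 nM siRNA pool, blank removed, divided by geometric mean of two housekeeping genes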
- Scale: BNIP3L mRNA: higher = more BNIP3L transcript after knockdown

CFD: BNIP3L mRNA, set 1 = 0.123
AMPH: BNIP3L mRNA, set 1 = 0.143
DNAH5: BNIP3L mRNA, set 1 = 0.0825
CDC42SE1: BNIP3L mRNA, set 1 = 0.0367
NOX3: BNIP3L mRNA, set 1 = 0.0605
NYNRIN: BNIP3L mRNA, set 1 = 0.111
ZNF559: BNIP3L mRNA, set 1 = 0.192
GTPBP8: BNIP3L mRNA, set 1 = 0.0932
SAYSD1: BNIP3L mRNA, set 1 = 0.0853
GADD45B: BNIP3L mRNA, set 1 = 0.197
NCBP2: BNIP3L mRNA, set 1 = 0.167
RCCD1: BNIP3L mRNA, set 1 = 0.13
NUDT1: BNIP3L mRNA, set 1 = 0.187
ABRACL: BNIP3L mRNA, set 1 = 0.103
NFKB2: BNIP3L mRNA, set 1 = 0.0941
PDXDC1: BNIP3L mRNA, set 1 = 0.0393
NNAT: BNIP3L mRNA, set 1 = 0.106
PALS2: BNIP3L mRNA, set 1 = 0.169

Part of the list above, reformatted:
| target | BNIP3L mRNA, set 1 |
| --- | --- |
| NYNRIN | 0.111 |
| ZNF559 | 0.192 |

The list goes on.
RGS14: BNIP3L mRNA, set 1 = 0.121
JCAD: BNIP3L mRNA, set 1 = 0.0466
ARID1B: BNIP3L mRNA, set 1 = 0.169
PLCH1: BNIP3L mRNA, set 1 = 0.123
IL17A: BNIP3L mRNA, set 1 = 0.078
GIMAP6: BNIP3L mRNA, set 1 = 0.267
ADAP1: BNIP3L mRNA, set 1 = 0.12
RPS6KA6: BNIP3L mRNA, set 1 = 0.0871
STX3: BNIP3L mRNA, set 1 = 0.134
PWWP3A: BNIP3L mRNA, set 1 = 0.0825
HAO1: BNIP3L mRNA, set 1 = 0.118
OSTM1: BNIP3L mRNA, set 1 = 0.113
PLAGL1: BNIP3L mRNA, set 1 = 0.191
ZSCAN2: BNIP3L mRNA, set 1 = 0.0198
PSG11: BNIP3L mRNA, set 1 = 0.154
USP19: BNIP3L mRNA, set 1 = 0.0696
PLXNB3: BNIP3L mRNA, set 1 = 0.0695
H2BC17: BNIP3L mRNA, set 1 = 0.0925
